In paper PMC8461898 one finds binding data, which are given here for one molecule.

The test concerns the target Epidermal growth factor receptor (EGFR) (human (endogenous in JHC7)) (UniProt P00533). Briefly: co-IP; CMTM3 overexpressed JHC7 cells (adenovirus, MOI 100); 1 mg lysate protein with 4 ug anti-EGFR antibody overnight at 4 C, protein G Sepharose 2 h at 4 C, three washes with lysis buffer, western blot.

Results are given in words; binding and its absence hold for the method and conditions named. In cells and extracts the contact can be indirect.

B1: CKLF-like MARVEL transmembrane domain containing (CMTM)3 (protein, UniProt Q96MX0 1-182)
chain: MWPPDPDPDPDPEPAGGSRPGPAVPGLRALLPARAFLCSLKGRLLLAESGLSFITFICYVASSASAFLTAPLLEFLLALYFLFADAMQLNDKWQGLCWPMMDFLRCVTAALIYFAISITAIAKYSDGASKAAGVFGFFATIVFATDFYLIFNDVAKFLKQGDSADETTAHKTEEENSDSDSD
With B1, the binding entry is reported as “no binding”.
